Measured values reported in PMC12407295.
No constants are given. Whether binding was seen depends on the method and setting. Binding seen in cells or lysates may run through a third protein. Some results given as binding are weak or reduced against the parent protein; the word gives no strength.

Amino acid sequences for entries named in this document (tags omitted). Residues count along the entry.
UniProt O75460, residues 19-977: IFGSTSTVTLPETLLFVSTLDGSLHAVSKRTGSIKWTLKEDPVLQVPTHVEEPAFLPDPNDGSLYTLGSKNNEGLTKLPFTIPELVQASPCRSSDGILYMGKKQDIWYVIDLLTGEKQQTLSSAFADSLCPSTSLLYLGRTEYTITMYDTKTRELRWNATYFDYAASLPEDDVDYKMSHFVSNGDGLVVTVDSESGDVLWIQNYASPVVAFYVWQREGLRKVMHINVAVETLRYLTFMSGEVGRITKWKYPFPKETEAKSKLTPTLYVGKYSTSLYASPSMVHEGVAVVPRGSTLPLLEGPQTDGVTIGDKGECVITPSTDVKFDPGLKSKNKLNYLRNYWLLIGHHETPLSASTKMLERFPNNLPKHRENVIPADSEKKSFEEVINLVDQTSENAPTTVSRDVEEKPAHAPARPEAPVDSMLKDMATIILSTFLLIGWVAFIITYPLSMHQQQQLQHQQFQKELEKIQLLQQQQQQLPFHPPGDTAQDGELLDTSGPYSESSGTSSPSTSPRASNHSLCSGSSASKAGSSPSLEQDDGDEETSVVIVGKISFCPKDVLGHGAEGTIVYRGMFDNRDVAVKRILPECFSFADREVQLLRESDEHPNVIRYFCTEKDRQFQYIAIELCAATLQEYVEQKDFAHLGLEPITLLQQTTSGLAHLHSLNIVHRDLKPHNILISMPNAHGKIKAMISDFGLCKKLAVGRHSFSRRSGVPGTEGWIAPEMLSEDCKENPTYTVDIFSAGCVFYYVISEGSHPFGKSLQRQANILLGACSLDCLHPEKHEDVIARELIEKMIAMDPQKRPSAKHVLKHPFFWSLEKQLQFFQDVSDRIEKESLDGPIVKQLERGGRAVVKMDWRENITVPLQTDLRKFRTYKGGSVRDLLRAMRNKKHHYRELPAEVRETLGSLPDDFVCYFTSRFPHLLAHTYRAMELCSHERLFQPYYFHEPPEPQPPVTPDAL
UniProt O94822: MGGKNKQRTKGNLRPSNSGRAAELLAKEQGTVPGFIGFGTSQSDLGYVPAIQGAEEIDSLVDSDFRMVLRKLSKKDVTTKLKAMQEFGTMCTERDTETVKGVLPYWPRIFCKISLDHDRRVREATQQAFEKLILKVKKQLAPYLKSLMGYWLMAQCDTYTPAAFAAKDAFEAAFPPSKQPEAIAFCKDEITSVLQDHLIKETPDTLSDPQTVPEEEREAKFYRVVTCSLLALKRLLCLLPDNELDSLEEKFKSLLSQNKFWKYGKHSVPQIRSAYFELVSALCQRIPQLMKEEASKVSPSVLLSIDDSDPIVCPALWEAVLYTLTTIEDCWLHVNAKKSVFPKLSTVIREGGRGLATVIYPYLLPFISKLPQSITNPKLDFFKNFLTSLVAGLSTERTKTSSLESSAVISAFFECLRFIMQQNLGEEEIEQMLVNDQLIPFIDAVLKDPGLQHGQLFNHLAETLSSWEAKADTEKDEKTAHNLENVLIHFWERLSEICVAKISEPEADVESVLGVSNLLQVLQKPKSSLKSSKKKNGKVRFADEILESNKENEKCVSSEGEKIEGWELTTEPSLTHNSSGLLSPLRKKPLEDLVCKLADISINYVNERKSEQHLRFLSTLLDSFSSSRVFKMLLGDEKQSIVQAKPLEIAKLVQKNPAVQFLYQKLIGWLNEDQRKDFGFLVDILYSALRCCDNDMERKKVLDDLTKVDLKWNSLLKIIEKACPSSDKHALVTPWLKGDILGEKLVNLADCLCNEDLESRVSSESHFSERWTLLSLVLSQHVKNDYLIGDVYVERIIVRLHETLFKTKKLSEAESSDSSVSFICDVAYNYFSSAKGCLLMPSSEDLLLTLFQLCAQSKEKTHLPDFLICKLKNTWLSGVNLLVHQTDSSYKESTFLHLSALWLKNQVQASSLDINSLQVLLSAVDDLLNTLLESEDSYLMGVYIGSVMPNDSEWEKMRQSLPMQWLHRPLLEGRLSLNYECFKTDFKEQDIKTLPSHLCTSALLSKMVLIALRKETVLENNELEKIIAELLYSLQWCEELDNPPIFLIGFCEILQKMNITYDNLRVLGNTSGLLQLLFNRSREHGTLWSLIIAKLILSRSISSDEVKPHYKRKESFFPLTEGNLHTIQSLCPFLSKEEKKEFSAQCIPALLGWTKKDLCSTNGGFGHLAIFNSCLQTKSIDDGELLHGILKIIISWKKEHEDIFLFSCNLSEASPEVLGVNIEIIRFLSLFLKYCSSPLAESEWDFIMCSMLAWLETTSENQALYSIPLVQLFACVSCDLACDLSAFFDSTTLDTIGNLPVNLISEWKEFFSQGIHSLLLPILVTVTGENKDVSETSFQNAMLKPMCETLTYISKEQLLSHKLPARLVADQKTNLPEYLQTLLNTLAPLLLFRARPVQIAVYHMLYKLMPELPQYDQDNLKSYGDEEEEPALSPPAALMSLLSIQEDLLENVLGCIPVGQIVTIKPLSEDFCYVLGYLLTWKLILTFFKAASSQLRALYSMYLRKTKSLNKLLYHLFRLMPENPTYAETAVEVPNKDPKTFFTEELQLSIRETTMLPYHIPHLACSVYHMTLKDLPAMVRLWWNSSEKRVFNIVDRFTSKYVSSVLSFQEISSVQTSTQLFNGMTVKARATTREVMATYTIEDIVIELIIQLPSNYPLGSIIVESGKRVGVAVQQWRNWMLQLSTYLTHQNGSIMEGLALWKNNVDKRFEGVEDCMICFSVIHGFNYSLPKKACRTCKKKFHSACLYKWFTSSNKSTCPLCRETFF

Target: Myc-IRE1α (human) (UniProt O75460)
Assay: co-IP; cells co-transfected with Myc-IRE1α and vector or Flag-Listerin constructs (HEK293T in the text, HEK293-TLR4 in the legend); lysed in IP buffer (1% Nonidet P-40, 50 mM Tris-HCl pH 7.4, 50 mM EDTA, 150 mM NaCl); antibody 1 h and protein A/G plus-agarose overnight; immunoblot

Substance: Flag-Listerin (from UniProt O94822 1-1766)
- binding: binds
